Source: patent US10702592B2, “Peptides and combination of peptides for use in immunotherapy against NHL and other cancers” (Immatics Biotechnologies GmbH, priority 2016, dated 2020)

Experiments:
[1] = test system: other tumor types (tumor samples vs normal tissues); experiment: LC-MS detection / over-presentation of peptides on additional tumor types; set-up: species or system human; conditions: for Other relevant organs/diseases: additional tumor types on which the peptide was found: over-presented on more than 5% of measured tumor samples, or presented on more than 5% with ratio of geometric means tumor vs normal tissues larger than 3; for Other relevant organs / diseases (additional tumor types with over-presentation): over-presented on >5% of measured tumor samples, or presented on >5% with ratio of geometric means tumor vs normal >3
NHL samples = experiment: Identification and label-free LC-MS quantitation of HLA-presented peptides: presentation profile/score, NHL vs normal tissues; set-up: species or system human; key: very highly over-presented on tumors compared to a panel of normal tissues (+++); highly over-presented on tumors compared to a panel of normal tissues (++); over-presented on tumors compared to a panel of normal tissues (+); conditions: NHL tumors compared to a panel of normal tissues

Substance | Other relevant organs/diseases [1] | Peptide Presentation (NHL samples) | Other relevant organs / diseases (additional tumor types with over-presentation) [1]
132 (VLQDQVDEL; listed as Homo sapiens) [compound 132] | CLL, AML, Melanoma | +++ | 
29 (ILSDVTQGL; listed as Homo sapiens) [compound 29] | CLL, BRCA, Uterine Cancer | +++ | 
16 (TLIAAILYL; listed as Homo sapiens) [compound 16] | CLL, AML, Gallbladder Cancer, Bile Duct Cancer | +++ | SCLC, HNSCC
307 (FLLPVAVKL; listed as Homo sapiens) [compound 307] |  | ++ | HNSCC
17 (VIIPLLSSV; listed as Homo sapiens) [compound 17] | CLL, AML, BRCA, Melanoma | +++ | 
32 (VLNEDELPSV; listed as Homo sapiens) [compound 32] | CLL | +++ | 
242 (GILDFZVFL; listed as Homo sapiens) [compound 242] | AML | + | 
216 (KVVSNLPAI; listed as Homo sapiens) [compound 216] | AML, Gallbladder Cancer, Bile Duct Cancer | +++ | RCC
276 (NMISYVVHL; listed as Homo sapiens) [compound 276] |  | +++ | 
182 (LLPPPPPVA; listed as Homo sapiens) [compound 182] | SCLC, CLL, Melanoma | + | HNSCC
302 (SLAELDEKISA; listed as Homo sapiens) [compound 302] | NSCLC, CLL, Melanoma, Esophageal Cancer, Urinary bladder cancer | + | Uterine Cancer, HNSCC
253 (YSDDDVPSV; listed as Homo sapiens) [compound 253] | NSCLC, SCLC, CLL, Melanoma, Esophageal Cancer, OC, Urinary bladder cancer, Uterine Cancer, Gallbladder Cancer, Bile Duct Cancer | +++ | AML, HNSCC
124 (FLGVVVPTV; listed as Homo sapiens) [compound 124] | CLL, Melanoma, OC, Uterine Cancer | +++ | AML, HNSCC
269 (VLQNVAFSV; listed as Homo sapiens) [compound 269] |  | +++ | 
22 (ALKKHLTSV; listed as Homo sapiens) [compound 22] |  | +++ | 
162 (RLADLKVSI; listed as Homo sapiens) [compound 162] |  | +++ | 
173 (VILDSVASV; listed as Homo sapiens) [compound 173] |  | +++ | 
134 (ALGRLGILSV; listed as Homo sapiens) [compound 134] |  | +++ | 
196 (TLALAMIYL; listed as Homo sapiens) [compound 196] |  | ++ | 
155 (KLMTSLVKV; listed as Homo sapiens) [compound 155] |  | +++ | 
167 (SLFSITKSV; listed as Homo sapiens) [compound 167] |  | +++ | 

Substance | Other relevant organs/diseases [1] | Peptide Presentation (NHL samples) | Other relevant organs / diseases (additional tumor types with over-presentation) [1]
75 (AALKYIPSV; listed as Homo sapiens) [compound 75] |  | +++ | 
298 (ALTDVILCV; listed as Homo sapiens) [compound 298] |  | + | 
89 (GLTALHVAV; listed as Homo sapiens) [compound 89] |  | +++ | 
147 (GLSEYQRNFL; listed as Homo sapiens) [compound 147] |  | +++ | 
137 (FIQQERFFL; listed as Homo sapiens) [compound 137] |  | +++ | 
72 (TLQEETAVYL; listed as Homo sapiens) [compound 72] |  | +++ | 
18 (KLTDQPPLV; listed as Homo sapiens) [compound 18] |  | +++ | 
177 (YLYEAEEATTL; listed as Homo sapiens) [compound 177] |  | +++ | 
136 (FIFGIVHLL; listed as Homo sapiens) [compound 136] |  | +++ | 
150 (ILSEKEYKL; listed as Homo sapiens) [compound 150] |  | +++ | 
113 (FVIDSFEEL; listed as Homo sapiens) [compound 113] |  | +++ | 
123 (ALLSAFVQL; listed as Homo sapiens) [compound 123] |  | ++ | 
49 (TILGDPQILL; listed as Homo sapiens) [compound 49] |  | +++ | 
139 (FLASPLVAI; listed as Homo sapiens) [compound 139] |  | +++ | 
172 (TLQDSLEFI; listed as Homo sapiens) [compound 172] |  | +++ | 
275 (KLMDLEDCAL; listed as Homo sapiens) [compound 275] |  | +++ | 
112 (FLAILPEEV; listed as Homo sapiens) [compound 112] |  | +++ | 
154 (KLMNIQQQL; listed as Homo sapiens) [compound 154] |  | +++ | 
145 (GLLHEVVSL; listed as Homo sapiens) [compound 145] |  | +++ | 
151 (ILVKQSPML; listed as Homo sapiens) [compound 151] |  | +++ | 
153 (KLLKGIYAI; listed as Homo sapiens) [compound 153] |  | +++ | 

Substance | Other relevant organs/diseases [1] | Peptide Presentation (NHL samples) | Other relevant organs / diseases (additional tumor types with over-presentation) [1]
159 (LLLSDSGFYL; listed as Homo sapiens) [compound 159] |  | +++ | 
176 (YLHIYESQL; listed as Homo sapiens) [compound 176] |  | +++ | 
178 (YVLQGEFFL; listed as Homo sapiens) [compound 178] |  | +++ | 
272 (KLDHTLSQI; listed as Homo sapiens) [compound 272] |  | +++ | 
156 (KMLEDDLKL; listed as Homo sapiens) [compound 156] |  | +++ | 
140 (FLFEDFVEV; listed as Homo sapiens) [compound 140] |  | +++ | 
157 (KVLEFLAKV; listed as Homo sapiens) [compound 157] |  | +++ | 
175 (VMESILLRL; listed as Homo sapiens) [compound 175] |  | +++ | 
35 (SLSSERYYL; listed as Homo sapiens) [compound 35] |  | +++ | 
231 (IVMGAIPSV; listed as Homo sapiens) [compound 231] |  | + | 
170 (STIELSENSL; listed as Homo sapiens) [compound 170] |  | +++ | 
135 (ALTGLQFQL; listed as Homo sapiens) [compound 135] |  | +++ | 
160 (LLPPPSPAA; listed as Homo sapiens) [compound 160] |  | +++ | 
300 (IVLERNPEL; listed as Homo sapiens) [compound 300] |  |  | AML
181 (LLFDQNDKV; listed as Homo sapiens) [compound 181] | RCC, HCC, BRCA, Melanoma, Urinary bladder cancer, Uterine Cancer |  | 
142 (FLYEDSKSVRL; listed as Homo sapiens) [compound 142] |  | +++ | 
184 (AVLGTSWQL; listed as Homo sapiens) [compound 184] | CRC, CLL, AML |  | 
240 (ALVPTPALFYL; listed as Homo sapiens) [compound 240] | BRCA |  | HNSCC
143 (TLHAVDVTL; listed as Homo sapiens) [compound 143] |  | +++ | 
306 (AQVALVNEV; listed as Homo sapiens) [compound 306] | Urinary bladder cancer, Uterine Cancer |  | Esophageal Cancer, AML
